Measured values from patent US20200340060A1, “COMPOSITIONS AND METHODS FOR IDENTIFYING AND TREATING LIVER DISEASES AND MONITORING TREATMENT OUTCOMES” (Gilead Sciences, Inc., priority 2017, published 2020).

What was measured:
[1] = SOMAscan serum proteomics in NASH subjects treated with selonsertib/simtuzumab, baseline and week 24; design: species or system human; settings: serum protein marker level, week 24 vs baseline
[2] = ELISA assays of circulating NASH secretome candidates, AUROC analysis; design: species or system human
[3] = lobular inflammation non-improvers
[4] = hepatic ballooning non-improvers
[5] = CRN fibrosis stage non-improvers

Row | Substance | Median percent CHG at W24 in improver ([1]; hepatic ballooning improvers) [%] | Median percent CHG at W24 in Non-improver [1, 4] [%] | Median percent CHG at W24 in improver ([1]; CRN fibrosis stage improvers) [%] | Median percent CHG at W24 in Non-improver [1, 5] [%] | further results
1 | ACE2 |  |  |  |  | Median percent CHG at W24 in improver ([1]; lobular inflammation improvers): 2.605%; Median percent CHG at W24 in Non-improver [1, 3]: −2.05%
2 | Adrenomedullin | −5.44 | 1.22 |  |  | 
3 | BAFF | −7.94 | 2.16 |  |  | 
4 | CD63 | 4.6 | −1.285 |  |  | 
5 | Cathepsin D | −15.96 | 4.95 |  |  | Median percent CHG at W24 in improver ([1]; lobular inflammation improvers): −14.74%; Median percent CHG at W24 in Non-improver [1, 3]: 4.99%
6 | Coagulation Factor IX |  |  | 0.35 | 6.7 | 
7 | Collectin Kidney 1 | −13.64 | −1.64 |  |  | 
8 | EPO-R |  |  |  |  | Median percent CHG at W24 in improver ([1]; lobular inflammation improvers): 2.2%; Median percent CHG at W24 in Non-improver [1, 3]: −1.13%
9 | Eotaxin |  |  |  |  | Median percent CHG at W24 in improver ([1]; lobular inflammation improvers): 15.185%; Median percent CHG at W24 in Non-improver [1, 3]: 4.34%
10 | Epo | 1.25 | 18.195 |  |  | 
11 | GDF2 | −21.82 | −10.91 |  |  | 
12 | GP1BA |  |  | 1.52 | −4.35 | 
13 | Granzyme B |  |  | 2.74 | −1.2 | 
14 | HGF | −9.9 | −4.445 |  |  | 
15 | IGFBP-5 | 6.44 | −0.695 |  |  | 
16 | IL-1a |  |  | −4.67 | −0.12 | 
17 | IL-8 |  |  |  |  | Median percent CHG at W24 in improver ([1]; lobular inflammation improvers): −15.795%; Median percent CHG at W24 in Non-improver [1, 3]: −4.72%
18 | IL-17F | 4.93 | −1.62 |  |  | 
19 | Integrin a1b1 |  |  |  |  | Median percent CHG at W24 in improver ([1]; lobular inflammation improvers): −34.885%; Median percent CHG at W24 in Non-improver [1, 3]: −5.31%; Median percent CHG at W24 in improver ([1]; steatosis improvers): −41.26%; Median percent CHG at W24 in Non-improver ([1]; steatosis non-improvers): −5.025%
20 | Integrin aVb5 | −5.42 | 1.765 |  |  | 
21 | JAG1 | 0.16 | 2.6 |  |  | 
22 | LRP8 |  |  | −2.81 | 1.37 | 
23 | LTBP4 | −5.93 | 2.525 |  |  | 
24 | Laminin | −8.68 | 2.15 |  |  | 
25 | Lumican |  |  |  |  | Median percent CHG at W24 in improver ([1]; steatosis improvers): −6.81%; Median percent CHG at W24 in Non-improver ([1]; steatosis non-improvers): 4.69%
26 | M-CSF R |  |  |  |  | Median percent CHG at W24 in improver ([1]; lobular inflammation improvers): −12.625%; Median percent CHG at W24 in Non-improver [1, 3]: 5.72%
27 | MAPK14 | −5.45 | −0.58 |  |  | 
28 | MMP-3 |  |  | 2.97 | 12.69 | 

Row | Substance | Median percent CHG at W24 in improver ([1]; hepatic ballooning improvers) [%] | Median percent CHG at W24 in Non-improver [1, 4] [%] | Median percent CHG at W24 in improver ([1]; CRN fibrosis stage improvers) [%] | Median percent CHG at W24 in Non-improver [1, 5] [%] | further results
29 | MP2K2 | 10.3 | 1.985 |  |  | 
30 | NEUREGULIN-1 |  |  | 6.86 | −0.69 | 
31 | Osteopontin | 1.79 | −1.54 |  |  | 
32 | PCSK9 |  |  | 8.12 | −2.85 | 
33 | PHI |  |  |  |  | Median percent CHG at W24 in improver ([1]; lobular inflammation improvers): −30.06%; Median percent CHG at W24 in Non-improver [1, 3]: −5.37%
34 | PIK3CA/PIK3R1 |  |  |  |  | Median percent CHG at W24 in improver ([1]; lobular inflammation improvers): −13.095%; Median percent CHG at W24 in Non-improver [1, 3]: −2.3%
35 | PLXB2 | −3.7 | 3.24 |  |  | 
36 | PSD7 | −0.75 | 1.45 |  |  | 
37 | PSMA |  |  | −6.53 | 1.42 | 
38 | RNase H1 | −4.06 | 0.585 | 2.2 | −2.6 | 
39 | SCF |  |  |  |  | Median percent CHG at W24 in Non-improver ([2]; clinical endpoint Ballooning): 1.9%; Median percent CHG at W24 in improver ([2]; clinical endpoint Ballooning): 7.4%
40 | SSRP1 |  |  | −0.48 | −1.51 | 
41 | STAT3 | −8.59 | −4.58 |  |  | 
42 | TGF-b3 |  |  | 2.97 | −0.94 | 
43 | TIMD3 |  |  |  |  | Median percent CHG at W24 in improver ([1]; steatosis improvers): −8.75%; Median percent CHG at W24 in Non-improver ([1]; steatosis non-improvers): 4.615%
44 | TNFSF15 |  |  | −2.49 | 2.31 | 
45 | TSP2 |  |  |  |  | Median percent CHG at W24 in improver ([1]; steatosis improvers): −25.59%; Median percent CHG at W24 in Non-improver ([1]; steatosis non-improvers): 21.215%
46 | TrkA | 5.74 | −2.235 |  |  | 
47 | TrkC |  |  | −4.72 | 3.16 | 
48 | Tropomyosin 2 | 4.09 | −0.98 |  |  | 
49 | VEGF sR2 | 4.03 | −1.275 |  |  | 
50 | YES |  |  |  |  | Median percent CHG at W24 in improver ([1]; steatosis improvers): −11.71%; Median percent CHG at W24 in Non-improver ([1]; steatosis non-improvers): −0.1%
51 | YKL-40 |  |  |  |  | Median percent CHG at W24 in improver ([1]; steatosis improvers): −14.29%; Median percent CHG at W24 in Non-improver ([1]; steatosis non-improvers): 13.28%; Median percent CHG at W24 in Non-improver ([2]; clinical endpoint Inflammation): 4.3%; Median percent CHG at W24 in improver ([2]; clinical endpoint Inflammation): −22%; Median percent CHG at W24 in Non-improver ([2]; clinical endpoint MRIPDFF): 6.5%; Median percent CHG at W24 in improver ([2]; clinical endpoint MRIPDFF): −22%; Median percent CHG at W24 in Non-improver ([2]; clinical endpoint NAS score): 0.5%; Median percent CHG at W24 in improver ([2]; clinical endpoint NAS score): −23.9%; Median percent CHG at W24 in Non-improver ([2]; clinical endpoint Steatosis): 10.8%; Median percent CHG at W24 in improver ([2]; clinical endpoint Steatosis): −22.9%
52 | b-Endorphin |  |  | 2.33 | -0.56 | 
53 | calgranulin B | −28.5 | −11.515 |  |  | 
54 | carbonic anhydrase II |  |  | 4.59 | −2 | 
55 | pTEN | −5.01 | −0.705 | 2.32 | −4.94 | 
